This note sets out measurements from article PMC9360041.

Chains of the proteins cited; added tags and fusions are not shown.
UniProt Q99873: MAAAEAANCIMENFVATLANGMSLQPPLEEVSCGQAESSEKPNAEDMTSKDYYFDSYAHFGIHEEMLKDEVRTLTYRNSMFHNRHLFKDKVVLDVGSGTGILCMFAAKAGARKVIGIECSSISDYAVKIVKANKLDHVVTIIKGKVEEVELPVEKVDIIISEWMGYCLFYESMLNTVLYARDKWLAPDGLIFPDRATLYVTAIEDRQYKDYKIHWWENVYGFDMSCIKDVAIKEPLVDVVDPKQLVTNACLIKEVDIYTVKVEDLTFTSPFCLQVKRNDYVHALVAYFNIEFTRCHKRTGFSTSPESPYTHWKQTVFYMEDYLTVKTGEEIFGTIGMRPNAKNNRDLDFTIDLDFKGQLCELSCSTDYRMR

No constants are given. Whether binding was seen depends on the method and setting. For some of these results: Binding seen in cells or lysates may run through a third protein. Some entries that bind do so weakly or less than the wild type. For some of these results: Where a sequence is shown, tags or fusion partners need not be part of it.

Test [1] addresses T1, endogenous HBP1 (human (endogenous in HeLa)) (UniProt O60381).
T1 sequence: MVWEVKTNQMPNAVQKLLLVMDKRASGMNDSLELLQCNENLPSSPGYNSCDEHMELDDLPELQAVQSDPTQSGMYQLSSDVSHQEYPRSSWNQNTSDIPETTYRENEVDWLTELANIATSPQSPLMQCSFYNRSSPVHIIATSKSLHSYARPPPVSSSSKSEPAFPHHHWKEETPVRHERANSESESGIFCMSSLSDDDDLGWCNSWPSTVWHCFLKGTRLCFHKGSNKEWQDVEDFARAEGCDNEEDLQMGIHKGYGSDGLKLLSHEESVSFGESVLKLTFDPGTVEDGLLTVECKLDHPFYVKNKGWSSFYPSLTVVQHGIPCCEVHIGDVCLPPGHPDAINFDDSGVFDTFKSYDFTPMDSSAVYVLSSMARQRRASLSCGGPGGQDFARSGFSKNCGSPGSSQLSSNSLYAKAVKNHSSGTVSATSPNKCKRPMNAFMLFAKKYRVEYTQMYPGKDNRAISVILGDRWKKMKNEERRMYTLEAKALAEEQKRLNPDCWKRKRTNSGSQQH
Description: co-IP; endogenous HBP1 or PRMT1 immunoprecipitated from HeLa cells; immunoblotted with anti-HBP1 or anti-PRMT1 antibodies. A general note: In western blotting, separated proteins are transferred to a membrane and probed.

The target of test [2] is T2, HA-HBP1 (UniProt O60381).
T2 sequence: T1 sequence
Description: co-IP; HEK293T cells co-transfected with tagged HBP1 and tagged PRMT1; IP with anti-HA or anti-FLAG antibody and Protein A-Sepharose overnight at 4 °C in IP lysis buffer (25 mM Tris-HCl pH 7.4, 150 mM NaCl, 1% Nonidet P-40, 1 mM EDTA, 5% glycerol); western blotting with anti-FLAG/HA.

In test [3] the target is T3, GST-HBP1 (UniProt O60381).
T3 sequence: T1 sequence
Description: pull-down; GST-tagged protein or GST alone on glutathione-Sepharose beads overnight at 4 °C, then incubated with His-tagged protein for 4 h at 4 °C; immunoblotting with anti-His antibody; both purified.

For test [4], the target named is GST-PRMT1 (UniProt Q99873). The description is as above.

Consider “endogenous PRMT1 (from UniProt Q99873 1-371) (enzyme)”, for which the binding entry in test [1] is “binds”.

As for “FLAG-PRMT1 (from UniProt Q99873 1-371) (enzyme)”, the binding result in test [2] is given as “binds”.

For the molecule “His-PRMT1 (from UniProt Q99873 1-371) (enzyme)”, in test [3], the binding result is reported as “binds”.

B1: His-HBP1 (protein, UniProt O60381 1-514)
chain: T1 sequence
In the case of B1, the binding entry in test [4] was “binds”.
